Drawing on PubChem BioAssay AID651803 (National Center for Advancing Translational Sciences (NCATS), 2012), this text covers activity change, negative = inhibition for 91 molecules.

Chains of the proteins cited; added tags and fusions are not shown. Lines headed by an entry give the natural chain unless they say otherwise; changes in a name come on top.
UniProt P11308: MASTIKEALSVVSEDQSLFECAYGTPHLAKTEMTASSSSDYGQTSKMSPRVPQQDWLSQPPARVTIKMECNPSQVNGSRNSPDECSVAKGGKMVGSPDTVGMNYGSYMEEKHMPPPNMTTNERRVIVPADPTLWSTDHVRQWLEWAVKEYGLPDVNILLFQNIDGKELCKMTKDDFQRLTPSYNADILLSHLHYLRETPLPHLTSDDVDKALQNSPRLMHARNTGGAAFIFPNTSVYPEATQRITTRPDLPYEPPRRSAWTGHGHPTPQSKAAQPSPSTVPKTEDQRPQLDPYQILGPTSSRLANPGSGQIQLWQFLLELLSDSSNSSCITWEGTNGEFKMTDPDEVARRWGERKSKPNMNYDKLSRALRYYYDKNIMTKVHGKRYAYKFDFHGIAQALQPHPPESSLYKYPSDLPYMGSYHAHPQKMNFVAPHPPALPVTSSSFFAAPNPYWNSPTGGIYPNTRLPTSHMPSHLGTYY

Molecules are shown by their SMILES. The whole screen tested about 1,200 compounds, of which fewer than 10 were called active. Calls come from the whole dose curve; as a rule, active = well fitted curve in the direction sought with a large enough effect; inconclusive = small, poorly fitted or top-dose-only effect, or another doubt; inactive = no such curve, though single readings can be large or run the other way. The list shows a part of the results.

The assay addresses Transcriptional regulator ERG (Homo sapiens) (UniProt P11308). In words: qHTS for Small Molecule Inhibitors of the ERG Ets/DNA interaction: TR assay against cherry picks. Note: % of control where 0% means no effect. Particulars: ERG Ets domain-DNA fluorescence polarization, Texas red probe; at 154 µM (top of the series). In outline:
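Polarization read sequentially for fluorescein (ex 480/em 535 nm) and Texas red (ex 555/em 632 nm) probes, 5 nM and 100 nM solutions, displaced from His-ERG Ets domain (1 uM solution), pH 7.5 Tris/KCl/EDTA/DTT buffer.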
As for `O=C1COc2ccc(S(=O)(=O)Nc3ccc4c(c3)OCO4)cc2N1`, the activity change, negative = inhibition was inactive: 2.48%. In the case of `Cn1nnnc1-c1cc(Cl)cc(Cl)c1`, the activity change, negative = inhibition was inactive: -8.77%. The figure for `COc1ccc(/C=C/c2c(-c3ccc(OC)cc3)sc3cc(OC)c(OC)cc23)cc1` is inactive: -3.78%; for `CCc1nn2c(-c3ccco3)ccnc2c1-c1ccc(F)cc1` it is inactive: 4.11%.

`Cc1nnc(SCC(=O)NNC(=O)c2ccccc2)n1-c1ccccc1`: the activity change, negative = inhibition was inactive: -10.7%.

`CCCC(NC(=O)C(C)Sc1nnnn1C1CC1)c1ccccc1` (stereo unspecified): the activity change, negative = inhibition was inactive: 0.633%. For `Cc1cc(C)cc(NC(=O)[C@H](Cc2c[nH]c3ccccc23)NC(=O)[C@@H]2Cc3ccccc3CN2)c1`, the activity change, negative = inhibition is inactive: -3.77%. The figure for `CCC1Oc2ccccc2N(CC(=O)NC2CC2)C1=O` (stereo unspecified) is inactive: -0.665%; for `COCCN1CCN(C(=O)C2CCC(=O)N(Cc3ccccc3OC)C2)CC1` (stereo unspecified) it is inactive: 1.79%.

Turning to `Cc1cc2cc(CNC(=O)C(C)Oc3ccccc3)ccc2n1C` (stereo unspecified), the activity change, negative = inhibition was inactive: 53.7%. As for `CCOc1cccc(CNc2ccc(O)cc2)c1OCc1ccc(Cl)cc1Cl`, the activity change, negative = inhibition was inactive: -9.02%. The figure for `N#Cc1ccc(CN2CCN(C(=O)CN3C(=O)NC4(CCCC4)C3=O)CC2)cc1` is inactive: -15.8%; for `CC(NC(=O)c1nn(C)c2c1CS(=O)(=O)c1ccccc1-2)c1ccccc1` (stereo unspecified) it is inactive: -13.1%; for `N#CCCN(C(=S)NC(=O)C1CCCCC1)c1ccccc1F` it is inactive: -3.69%. For `O=C(NCCc1ccc(Cl)cc1)/C(=C/c1cccnc1)NC(=O)c1ccccc1`, the activity change, negative = inhibition was inactive: 1.66%.

Regarding `Cn1c(=O)c2sccc2n2c(CCCC(=O)NCc3ccco3)nnc12`, the activity change, negative = inhibition was inactive: 6.1%. As for `Cc1cc(/C=N/NC(N)=S)c(O)c(/C=N/NC(N)=S)c1`, the activity change, negative = inhibition is inactive: -3.87%. As for `CCCn1c(SCC(=O)c2cc(C)n(-c3ccc4c(c3)OCO4)c2C)n[nH]c1=O`, the activity change, negative = inhibition is inactive: 6.3%.

As for `CCOC(=O)C1CCN(C(=O)c2cccc(S(=O)(=O)N3CCCc4ccccc43)c2)CC1`, the activity change, negative = inhibition is inactive: -15.3%. With `CC(=O)Nc1cccc(C(=O)NC2CCCc3c2cnn3-c2ccc(C(C)(C)C)cc2)c1` (stereo unspecified), the activity change, negative = inhibition was inactive: 0.592%. `O=C1c2ccccc2C(=O)N1CCOc1ccccc1Br`: the activity change, negative = inhibition was inactive: -15.6%. Take `CCc1ccc2c(c1)c(=O)c(C(=O)c1ccc(C)cc1)cn2CC(=O)Nc1ccccc1C`: the activity change, negative = inhibition is inactive: 2.71%.

Consider `O=C(COC(=O)/C=C/c1cccs1)Nc1ccc(F)cc1`, for which the activity change, negative = inhibition was inactive: 1.62%. Take `O=C1CC(Cc2ccccc2)C(=O)N1c1ccc(Cl)cn1` (stereo unspecified): the activity change, negative = inhibition is inactive: 8.77%. As for `N/C(=N\N=C\c1ccc(O)c(O)c1)c1nonc1N`, the activity change, negative = inhibition was inactive: -16.2%. Take `COc1ccc(-c2ccc(SCC(=O)NCc3ccc4c(c3)OCO4)nn2)cc1OC`: the activity change, negative = inhibition was inactive: -14.9%. Take `Cc1cc(C)cc(C(=O)Nc2nnc(SCC(=O)NCC3CCCO3)s2)c1` (stereo unspecified): the activity change, negative = inhibition is inactive: -24.4%. The figure for `CCN1C(=O)C(CC(=O)NCCc2ccccc2)N(NC(=O)c2cccnc2)C1=S` (stereo unspecified) is inactive: -8.52%; for `COc1cc(NC(=O)CCNC(=O)Cn2cnc3sc4c(c3c2=O)CCCC4)cc(OC)c1OC` it is inactive: -8.12%; for `Cc1ccc(/C=C/C(=O)NCc2ccncc2)cc1` it is inactive: -10.5%. In the case of `Cc1ccccc1S(=O)(=O)N(CC(O)CN1C(=O)NC(C)(C)C1=O)c1ccccc1` (stereo unspecified), the activity change, negative = inhibition is inactive: -2.88%.

Consider `Cc1[nH]ccc2c1[nH]c1cc(=O)ccc12`, for which the activity change, negative = inhibition was inactive: -23.3%. For `C=CCn1c(CNC(=O)c2ccccc2F)nnc1SCc1nc2ccccc2c(=O)[nH]1`, the activity change, negative = inhibition was inactive: 1.69%.

On to `COc1ccc(OC)c(/C=N/NC(=O)CCCC(=O)Nc2cccc(Br)c2)c1`, for which the activity change, negative = inhibition was inactive: -4.73%. As for `COc1ccc(Nc2ncnc3sccc23)cc1OC`, the activity change, negative = inhibition is inactive: -6.91%.

As for `OCCC1CN(CCCc2ccccc2)CCN1CCc1ccccc1` (stereo unspecified), the activity change, negative = inhibition was inactive: 2.73%. As to `N#C/C(=C\c1c(N2CCC(C(N)=O)CC2)nc2ccccn2c1=O)C(=O)NCc1ccco1`, the activity change, negative = inhibition was inactive: 3.81%.

Turning to `COc1ccc(CNC(=O)COC(=O)CCOc2ccccc2)cc1`, the activity change, negative = inhibition was inactive: 3.98%. For `CCOC(=O)N1CCC(NC(=O)Cc2ccccc2)CC1`, the activity change, negative = inhibition is inactive: 1.65%. Consider `O=c1c(-c2ccccc2)c[nH]n1-c1cccc([N+](=O)[O-])c1`, for which the activity change, negative = inhibition is inactive: -1.99%. In the case of `CC(C)Oc1cccc(C(=O)C2CCCN(Cc3ccc4nonc4c3)C2)c1` (stereo unspecified), the activity change, negative = inhibition was inactive: -8.31%. Consider `CCN(C(=O)CSc1nc2cc(C(=O)O)ccc2c(=O)n1Cc1ccccc1)c1ccccc1`, for which the activity change, negative = inhibition is inactive: 0.985%. The figure for `O=C(COC(=O)c1ccc(F)cc1F)c1ccc[nH]1` is inactive: -11.5%; for `Oc1ccc(NCc2ccccc2OCc2ccccc2F)cc1` it is inactive: -10.1%.

Take `CCCCC(CC)COC(=O)CCCCC(=O)OCC(CC)CCCC` (stereo unspecified): the activity change, negative = inhibition was inactive: -14.4%. `COC(=O)c1c(C)[nH]c(C(=O)C(C)OC(=O)c2cc(C)oc2C)c1C` (stereo unspecified): the activity change, negative = inhibition is inactive: -1.22%. In the case of `CCN(CC)Cc1c(O)c(Cl)cc2c(C)cc(=O)oc12`, the activity change, negative = inhibition was inactive: 3.38%. As for `O=C(NNc1cc(N2CCOCC2)nc(N2CCOCC2)n1)c1ccc([N+](=O)[O-])cc1`, the activity change, negative = inhibition is inactive: 1.37%.

As to `Cc1ccc(C(=O)Nc2ccc(C(=O)N/N=C/c3c[nH]c4ccccc34)cc2)cc1`, the activity change, negative = inhibition was inactive: -28.5%.

As to `CCCCc1nc2sc3c(=O)[nH]c(=S)[nH]c3c2c2c1CCC2`, the activity change, negative = inhibition was inactive: 14.6%. Regarding `CS(=O)(=O)NN1C(=O)c2ccccc2NC1c1cccc(O)c1` (stereo unspecified), the activity change, negative = inhibition is inactive: -7.46%. For `FC(F)(F)COc1cc(-c2nnc(SCc3ccccc3)n2Cc2ccco2)cc(OCC(F)(F)F)n1`, the activity change, negative = inhibition is inactive: -11.3%.

On to `COc1ccc(C(=O)NCc2csc(C)n2)cc1OC1CCN(C(C)=O)CC1`, for which the activity change, negative = inhibition is inactive: -0.898%.

`O=C(NCCCN1CCOCC1)c1ccc(CSc2ccc(Cl)cc2)cc1`: the activity change, negative = inhibition is inactive: -2.11%. For `Cc1ccc(NS(=O)(=O)c2ccc(NC(=O)c3ccccc3C(=O)O)cc2)cc1C` the value was inactive: 2.33%; for `CN(CCO)C1=NS(=O)(=O)c2cc([N+](=O)[O-])ccc21`, inactive: -10.2%; for `Cc1ccc2sc(NNC(=O)c3ccc4c(c3)OCCO4)nc2c1C`, inactive: 3.44%. The figure for `COc1cccc2c1C(=N)c1c(O)c3c(c(O)c1C2=O)CC(O)(C(C)=O)CC3OC1CC(N)C(O)C(C)O1` (stereo unspecified) is inactive: 10.9%; for `NS(=O)(=O)c1ccc(NC(=O)COC(=O)c2c3c(nc4ccccc24)/C(=C\c2ccc4c(c2)OCO4)CCC3)cc1` it is inactive: -7.4%. With `NS(=O)(=O)c1cccc(NC(=O)COC(=O)CSCc2ccccc2)c1`, the activity change, negative = inhibition was inactive: -2.35%. Regarding `c1ccc(Oc2ncnc3ccccc23)cc1`, the activity change, negative = inhibition is inactive: -7.4%. The figure for `O=C(O)CC(CC(=O)N1CCOCC1)c1ccccc1` (stereo unspecified) is inactive: 1.81%. `COc1cccc(C(=O)c2c(C)c(CCC#N)n3ccccc23)c1OC`: the activity change, negative = inhibition was inactive: 2.32%. In the case of `Oc1ccc(N=Cc2sc3ccccc3c2Cl)cc1`, the activity change, negative = inhibition is inactive: -8.52%. `O=C(N/N=C/c1cc2c3c(c1O)CCCN3CCC2)c1ccccc1O`: the activity change, negative = inhibition is inactive: 52.4%.

On to `COc1cccc(CCN2C(=O)C(=O)N([C@@H](CNCc3ccccc3)Cc3ccccc3F)C[C@@H]2C(C)(C)C)c1`, for which the activity change, negative = inhibition is inactive: -18.6%. With `CCCC(=O)Nn1cnc2c(c1=O)C1(CCCCC1)Cc1ccccc1-2`, the activity change, negative = inhibition is inactive: 0.839%.

Take `O=C(c1ccccc1)N1C(=O)C(c2ccccc2)Oc2ccccc21` (stereo unspecified): the activity change, negative = inhibition was inactive: -2.58%. The figure for `CCCCCC(=O)NC(=S)Nc1cccc(-c2nc3ncccc3o2)c1` is inactive: -5.77%; for `Cc1ccc(S(=O)(=O)N2CCOCC2)cc1NC(=O)CSc1nccn1C` it is inactive: -17.4%; for `COc1ccccc1CN(C)C(=O)C(NC(=O)Cc1cccc2ccccc12)C(C)C` (stereo unspecified) it is inactive: -0.0885%. The figure for `CCOc1ccccc1C1CC(c2ccc(Br)cc2)Nc2nc(N)nn21` (stereo unspecified) is inactive: -19.2%; for `CCCCc1nn2c(=O)cc(COC(=O)c3ccccc3NC(=O)C(C)(C)C)nc2s1` it is inactive: 5.07%. As to `Oc1ccc(NCc2cccc(OCc3ccccc3)c2)cc1`, the activity change, negative = inhibition was inactive: -13%. Regarding `CC1(C)C2CCC1(CS(=O)(=O)Nc1ccccc1)C(=O)C2` (stereo unspecified), the activity change, negative = inhibition was inactive: 3.72%. In the case of `CC(=O)Nc1nnc(-c2c(-c3c(Cl)cccc3Cl)noc2C)o1`, the activity change, negative = inhibition is inactive: 1.97%. The figure for `Cc1ccc(-n2c3c(c(=O)[nH]c2=O)C(NS(=O)(=O)c2ccc(Cl)cc2)(C(F)(F)F)C(=O)N3)cc1` (stereo unspecified) is inactive: -5.47%; for `CC(=O)c1cccc(NC(=O)C(C)OC(=O)CCc2nc3ccccc3c(=O)[nH]2)c1` (stereo unspecified) it is inactive: -4.59%. Take `CCCCn1c(=O)[nH]c2nc3cc(N)ccc3nc2c1=O`: the activity change, negative = inhibition was inactive: 15.6%.

In the case of `O=C(CCNC(=O)c1ccccc1Cl)NCCCSc1ccccc1`, the activity change, negative = inhibition is inactive: 3.19%. For the molecule `Cc1cccc(/C=N/NC(=O)NC23CC4CC(CC(C4)C2)C3)n1`, the activity change, negative = inhibition is inactive: 18%. The figure for `Cc1ccc2c(c1)N(CCC(=O)NC1CCCCC1)C(=O)CO2` is inactive: -14.2%; for `Cc1cccc(NC(=O)c2cc3ccccc3nc2C)c1` it is inactive: -2.6%. `c1ccc(-c2cc3ccccc3[nH]2)cc1`: the activity change, negative = inhibition is inactive: 2.83%.

Consider `COc1ccc(-n2c(SCC(C)=O)nc3sc(C)c(C)c3c2=O)cc1`, for which the activity change, negative = inhibition is inactive: 16.6%. For the molecule `CCCCn1c(N)c(N(CCOC)C(=O)c2ccc(S(=O)(=O)N3CCCCC3)cc2)c(=O)[nH]c1=O`, the activity change, negative = inhibition is inactive: -2.18%. Consider `COc1cccc(N/C=C/c2onc(C)c2[N+](=O)[O-])c1`, for which the activity change, negative = inhibition is inactive: 1.71%.

On to `Cc1cccc(CC(=O)NCCn2c(C)cc3ccccc32)c1`, for which the activity change, negative = inhibition is inactive: 1.49%.

With `Cc1ccc(NC(=O)CN2C(=O)C3CC=C(Cl)CC3C2=O)cc1` (stereo unspecified), the activity change, negative = inhibition was inactive: 1.72%. For `O=C(C1CCN(CCc2ccccc2)CC1)N1CCOCC1` the value was inactive: -9.51%; for `COc1ccc(COC(=O)C2=C(C)NC(=O)NC2c2ccccc2)cc1` (stereo unspecified), inactive: -12.2%.
